This is one part of the list.
Compound: Cc1cc(ccc1-c1ccccc1)C(=O)N1CCCN(CC1)C(=O)CCl [compound 10]
Assay: probe-labelled cysteine peptide fold change vs DMSO (competition) (log2 fold change); higher = less target engagement (more negative = stronger competition)
Conditions: 10 µM; THP-1; incubation time: 4 h
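Note: competitive profiling in live THP-1 cells: cysteine peptides tagged with an iodoacetamide desthiobiotin (IA-DTB) probe, intensity after compound treatment relative to DMSO-treated cells.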

By UniProt entry, the sequences of proteins in these tests, tags left out. Where a name states a change or a piece, a line headed by the entry shows the natural chain unless it says otherwise.
UniProt Q92616, whole entry, looked up: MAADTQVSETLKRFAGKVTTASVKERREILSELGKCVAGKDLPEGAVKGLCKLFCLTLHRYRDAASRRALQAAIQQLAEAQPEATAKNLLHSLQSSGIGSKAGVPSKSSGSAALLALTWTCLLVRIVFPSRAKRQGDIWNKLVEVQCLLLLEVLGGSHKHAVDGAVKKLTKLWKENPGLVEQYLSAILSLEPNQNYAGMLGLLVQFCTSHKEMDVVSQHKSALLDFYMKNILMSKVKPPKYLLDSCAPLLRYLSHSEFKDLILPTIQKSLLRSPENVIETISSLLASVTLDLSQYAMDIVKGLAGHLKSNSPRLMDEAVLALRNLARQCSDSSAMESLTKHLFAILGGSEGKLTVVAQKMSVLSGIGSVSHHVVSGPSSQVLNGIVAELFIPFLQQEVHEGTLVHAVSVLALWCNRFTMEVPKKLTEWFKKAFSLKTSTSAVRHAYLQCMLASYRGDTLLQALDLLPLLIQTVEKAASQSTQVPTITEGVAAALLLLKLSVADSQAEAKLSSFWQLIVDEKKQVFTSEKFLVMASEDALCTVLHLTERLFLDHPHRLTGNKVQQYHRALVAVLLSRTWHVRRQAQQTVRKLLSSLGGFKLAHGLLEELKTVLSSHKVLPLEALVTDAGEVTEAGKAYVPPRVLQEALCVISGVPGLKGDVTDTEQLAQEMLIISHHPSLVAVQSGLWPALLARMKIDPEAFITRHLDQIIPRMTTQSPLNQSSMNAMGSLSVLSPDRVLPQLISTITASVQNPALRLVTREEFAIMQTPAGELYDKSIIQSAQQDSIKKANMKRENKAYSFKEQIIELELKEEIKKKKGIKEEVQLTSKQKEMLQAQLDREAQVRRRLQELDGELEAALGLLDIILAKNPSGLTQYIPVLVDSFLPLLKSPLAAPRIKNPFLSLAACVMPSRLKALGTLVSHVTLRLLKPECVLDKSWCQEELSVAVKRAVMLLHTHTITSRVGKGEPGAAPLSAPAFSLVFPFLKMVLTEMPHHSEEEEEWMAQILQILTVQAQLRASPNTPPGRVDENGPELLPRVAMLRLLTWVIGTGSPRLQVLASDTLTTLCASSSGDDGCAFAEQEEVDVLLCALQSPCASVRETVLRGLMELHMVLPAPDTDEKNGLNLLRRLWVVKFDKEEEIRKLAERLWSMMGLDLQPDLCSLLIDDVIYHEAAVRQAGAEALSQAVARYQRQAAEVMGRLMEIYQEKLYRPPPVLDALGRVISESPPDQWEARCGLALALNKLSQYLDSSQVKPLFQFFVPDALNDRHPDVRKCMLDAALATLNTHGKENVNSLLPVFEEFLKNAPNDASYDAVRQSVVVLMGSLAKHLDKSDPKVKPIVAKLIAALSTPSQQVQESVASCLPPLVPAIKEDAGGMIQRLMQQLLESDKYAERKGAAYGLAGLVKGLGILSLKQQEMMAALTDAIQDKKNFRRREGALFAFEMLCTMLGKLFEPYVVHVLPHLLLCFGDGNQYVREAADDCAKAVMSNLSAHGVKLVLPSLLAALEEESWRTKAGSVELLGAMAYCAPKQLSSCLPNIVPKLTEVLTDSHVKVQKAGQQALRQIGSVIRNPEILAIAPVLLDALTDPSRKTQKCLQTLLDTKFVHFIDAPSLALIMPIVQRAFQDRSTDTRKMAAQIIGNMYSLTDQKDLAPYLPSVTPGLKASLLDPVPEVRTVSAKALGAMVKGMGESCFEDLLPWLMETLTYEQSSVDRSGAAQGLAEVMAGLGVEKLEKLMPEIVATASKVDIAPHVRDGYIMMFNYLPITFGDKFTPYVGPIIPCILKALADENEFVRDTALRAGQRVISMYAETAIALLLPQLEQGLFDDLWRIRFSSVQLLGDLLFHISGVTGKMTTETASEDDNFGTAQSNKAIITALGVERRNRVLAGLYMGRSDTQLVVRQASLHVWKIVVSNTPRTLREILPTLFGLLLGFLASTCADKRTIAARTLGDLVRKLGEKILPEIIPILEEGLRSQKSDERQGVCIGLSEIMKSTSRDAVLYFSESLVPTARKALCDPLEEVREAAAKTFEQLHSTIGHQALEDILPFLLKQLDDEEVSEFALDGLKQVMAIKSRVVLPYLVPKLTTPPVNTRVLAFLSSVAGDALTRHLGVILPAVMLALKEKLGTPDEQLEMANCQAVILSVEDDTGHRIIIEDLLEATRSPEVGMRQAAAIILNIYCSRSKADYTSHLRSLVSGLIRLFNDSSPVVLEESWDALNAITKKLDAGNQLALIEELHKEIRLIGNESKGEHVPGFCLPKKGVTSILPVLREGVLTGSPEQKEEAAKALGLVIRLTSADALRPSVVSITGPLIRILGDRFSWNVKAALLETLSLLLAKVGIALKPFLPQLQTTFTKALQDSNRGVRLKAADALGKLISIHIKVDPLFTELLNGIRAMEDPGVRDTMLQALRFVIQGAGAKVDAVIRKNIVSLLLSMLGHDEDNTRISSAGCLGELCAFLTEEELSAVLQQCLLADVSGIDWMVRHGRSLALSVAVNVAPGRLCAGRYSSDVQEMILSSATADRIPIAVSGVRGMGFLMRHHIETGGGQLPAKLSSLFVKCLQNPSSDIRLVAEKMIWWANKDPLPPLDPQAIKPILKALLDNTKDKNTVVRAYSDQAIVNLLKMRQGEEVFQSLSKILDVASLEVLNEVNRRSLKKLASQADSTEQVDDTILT
UniProt P50395: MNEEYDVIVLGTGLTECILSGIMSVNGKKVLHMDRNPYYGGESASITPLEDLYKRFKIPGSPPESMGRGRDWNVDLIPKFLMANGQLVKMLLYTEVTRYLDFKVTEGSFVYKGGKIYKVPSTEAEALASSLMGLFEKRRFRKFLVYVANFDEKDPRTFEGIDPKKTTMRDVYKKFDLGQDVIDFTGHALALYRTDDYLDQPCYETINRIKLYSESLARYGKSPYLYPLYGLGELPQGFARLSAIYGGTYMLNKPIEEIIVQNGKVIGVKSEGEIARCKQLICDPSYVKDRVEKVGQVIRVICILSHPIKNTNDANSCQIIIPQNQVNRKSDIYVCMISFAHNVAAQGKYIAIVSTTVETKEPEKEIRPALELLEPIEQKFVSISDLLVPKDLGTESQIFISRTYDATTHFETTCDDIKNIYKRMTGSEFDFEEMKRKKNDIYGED
UniProt O14893: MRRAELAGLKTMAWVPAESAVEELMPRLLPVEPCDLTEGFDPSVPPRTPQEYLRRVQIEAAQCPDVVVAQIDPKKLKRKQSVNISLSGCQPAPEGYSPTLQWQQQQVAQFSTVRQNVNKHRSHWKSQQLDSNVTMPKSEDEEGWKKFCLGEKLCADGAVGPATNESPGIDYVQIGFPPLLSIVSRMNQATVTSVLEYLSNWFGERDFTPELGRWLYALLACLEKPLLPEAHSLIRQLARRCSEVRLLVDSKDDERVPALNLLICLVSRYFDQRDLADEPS
UniProt P22102: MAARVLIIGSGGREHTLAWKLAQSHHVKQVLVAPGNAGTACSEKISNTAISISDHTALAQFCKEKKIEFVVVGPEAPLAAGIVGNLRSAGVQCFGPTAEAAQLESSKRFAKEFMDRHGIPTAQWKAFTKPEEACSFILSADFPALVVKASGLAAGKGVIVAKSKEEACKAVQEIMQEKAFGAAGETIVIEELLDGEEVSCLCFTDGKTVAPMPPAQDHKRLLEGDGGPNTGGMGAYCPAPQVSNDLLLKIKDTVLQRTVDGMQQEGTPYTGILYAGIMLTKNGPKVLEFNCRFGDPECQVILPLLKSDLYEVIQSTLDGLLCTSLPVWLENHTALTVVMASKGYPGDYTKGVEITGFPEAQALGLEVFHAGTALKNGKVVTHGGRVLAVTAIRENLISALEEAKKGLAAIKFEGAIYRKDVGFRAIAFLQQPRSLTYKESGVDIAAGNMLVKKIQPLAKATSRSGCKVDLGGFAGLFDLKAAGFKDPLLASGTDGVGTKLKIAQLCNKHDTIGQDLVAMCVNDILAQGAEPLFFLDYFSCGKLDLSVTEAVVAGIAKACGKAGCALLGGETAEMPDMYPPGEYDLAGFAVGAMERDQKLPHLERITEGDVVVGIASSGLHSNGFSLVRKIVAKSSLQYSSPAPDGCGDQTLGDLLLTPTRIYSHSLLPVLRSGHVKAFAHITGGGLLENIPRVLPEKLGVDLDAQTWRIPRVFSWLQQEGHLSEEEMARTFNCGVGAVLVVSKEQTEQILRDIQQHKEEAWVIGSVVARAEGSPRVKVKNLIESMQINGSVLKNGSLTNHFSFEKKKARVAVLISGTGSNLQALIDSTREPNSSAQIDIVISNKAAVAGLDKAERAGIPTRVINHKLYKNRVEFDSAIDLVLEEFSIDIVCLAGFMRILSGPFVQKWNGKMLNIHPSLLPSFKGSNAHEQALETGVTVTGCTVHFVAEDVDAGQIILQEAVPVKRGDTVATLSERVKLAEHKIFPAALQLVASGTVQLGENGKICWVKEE
UniProt O95749: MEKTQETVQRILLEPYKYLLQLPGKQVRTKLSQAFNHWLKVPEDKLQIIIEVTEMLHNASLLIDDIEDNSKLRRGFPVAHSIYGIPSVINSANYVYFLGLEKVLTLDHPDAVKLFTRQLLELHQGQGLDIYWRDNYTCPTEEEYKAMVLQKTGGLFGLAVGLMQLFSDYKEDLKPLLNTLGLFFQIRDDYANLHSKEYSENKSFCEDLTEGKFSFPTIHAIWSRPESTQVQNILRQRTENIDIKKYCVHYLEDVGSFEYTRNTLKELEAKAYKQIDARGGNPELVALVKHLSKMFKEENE
UniProt Q8TF64: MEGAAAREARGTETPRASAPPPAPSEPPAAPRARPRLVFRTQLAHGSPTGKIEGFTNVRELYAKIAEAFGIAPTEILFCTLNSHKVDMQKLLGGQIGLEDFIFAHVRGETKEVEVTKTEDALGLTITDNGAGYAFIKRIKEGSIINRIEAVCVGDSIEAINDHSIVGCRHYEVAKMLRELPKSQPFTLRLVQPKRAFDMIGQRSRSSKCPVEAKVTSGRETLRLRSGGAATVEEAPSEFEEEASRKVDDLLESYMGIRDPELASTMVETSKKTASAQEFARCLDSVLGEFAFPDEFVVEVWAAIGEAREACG
UniProt Q14697: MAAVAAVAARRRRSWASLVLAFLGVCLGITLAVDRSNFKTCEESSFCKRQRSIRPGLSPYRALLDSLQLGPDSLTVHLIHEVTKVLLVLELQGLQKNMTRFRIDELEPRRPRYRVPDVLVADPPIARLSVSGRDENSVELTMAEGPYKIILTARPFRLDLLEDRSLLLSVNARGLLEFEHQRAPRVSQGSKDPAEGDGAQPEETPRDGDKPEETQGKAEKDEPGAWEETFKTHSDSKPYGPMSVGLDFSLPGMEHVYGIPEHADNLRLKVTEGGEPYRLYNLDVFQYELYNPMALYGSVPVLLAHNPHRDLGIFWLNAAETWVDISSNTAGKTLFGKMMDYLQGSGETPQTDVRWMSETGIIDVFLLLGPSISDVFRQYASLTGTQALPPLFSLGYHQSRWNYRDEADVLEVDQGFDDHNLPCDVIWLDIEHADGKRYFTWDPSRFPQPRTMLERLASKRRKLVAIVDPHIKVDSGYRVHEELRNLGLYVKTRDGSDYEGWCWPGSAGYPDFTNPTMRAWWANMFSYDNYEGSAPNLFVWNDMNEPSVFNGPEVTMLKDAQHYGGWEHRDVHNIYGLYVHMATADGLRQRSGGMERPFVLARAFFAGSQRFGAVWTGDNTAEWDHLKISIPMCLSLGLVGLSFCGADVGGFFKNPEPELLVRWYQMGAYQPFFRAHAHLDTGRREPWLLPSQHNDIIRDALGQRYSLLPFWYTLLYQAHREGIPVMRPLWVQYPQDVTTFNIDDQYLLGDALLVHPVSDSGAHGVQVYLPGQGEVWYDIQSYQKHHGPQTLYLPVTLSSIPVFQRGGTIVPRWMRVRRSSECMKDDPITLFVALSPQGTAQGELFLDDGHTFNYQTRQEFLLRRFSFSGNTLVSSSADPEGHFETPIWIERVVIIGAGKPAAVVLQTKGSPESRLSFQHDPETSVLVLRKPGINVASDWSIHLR
UniProt P48506: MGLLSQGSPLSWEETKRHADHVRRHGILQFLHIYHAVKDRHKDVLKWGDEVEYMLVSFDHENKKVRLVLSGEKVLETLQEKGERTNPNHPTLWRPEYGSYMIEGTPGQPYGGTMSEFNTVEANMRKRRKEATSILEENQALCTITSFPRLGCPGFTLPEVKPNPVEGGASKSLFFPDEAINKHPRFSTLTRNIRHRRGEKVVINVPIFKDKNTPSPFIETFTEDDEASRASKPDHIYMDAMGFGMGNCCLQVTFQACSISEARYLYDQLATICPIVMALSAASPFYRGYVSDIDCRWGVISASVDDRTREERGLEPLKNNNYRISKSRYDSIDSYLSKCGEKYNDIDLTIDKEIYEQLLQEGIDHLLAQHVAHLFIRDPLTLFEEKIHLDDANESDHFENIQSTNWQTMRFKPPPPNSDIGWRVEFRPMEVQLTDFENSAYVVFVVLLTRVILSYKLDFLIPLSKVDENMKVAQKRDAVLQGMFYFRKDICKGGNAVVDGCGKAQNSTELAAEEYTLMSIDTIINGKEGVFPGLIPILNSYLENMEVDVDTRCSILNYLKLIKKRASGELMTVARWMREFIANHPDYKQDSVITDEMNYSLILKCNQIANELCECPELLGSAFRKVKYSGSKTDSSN

Target | probe-labelled cysteine peptide fold change
GALNT6_Q8NCL4_165_SLGPDTRPPECVDQK (UniProt Q8NCL4) | 0.067
GCN1_Q92616_907_NPFLSLAACVMPSR (UniProt Q92616) | -0.19
GCN1_Q92616_932_LLKPECVLDK (UniProt Q92616) | -0.47
GDI2_P50395_302_VICILSHPIK (UniProt P50395) | -0.022
GEMIN2_O14893_264_DDERVPALNLLICLVSR (UniProt O14893) | 0.264
GCN1_Q92616_1235_CGLALALNK (UniProt Q92616) | -0.258
GCN1_Q92616_1535_QLSSCLPNIVPK (UniProt Q92616) | -0.0125
GATD1_Q8NB37_122_ILQHFHSESKPICAVGHGVAALCCATNEDR (UniProt Q8NB37) | 0.0213
GEMIN7_Q9H840_44_RAPLRPEVPEIQECPIAQESLESQEQR (UniProt Q9H840) | -0.272
GART_P22102_93_SAGVQCFGPTAEAAQLESSKR (UniProt P22102) | -0.0118
GGPS1_O95749_205_SFCEDLTEGK (UniProt O95749) | -0.213
GIPC3_Q8TF64_152+168_IEAVCVGDSIEAINDHSIVGCR (UniProt Q8TF64) | -0.127
GANAB_Q14697_502_DGSDYEGWCWPGSAGYPDFTNPTMR (UniProt Q14697) | -0.189
GAS7_O60861_318_CDHHIADLR (UniProt O60861) | 0.0812
GCN1_Q92616_648_VLQEALCVISGVPGLK (UniProt Q92616) | 0.128
GCLC_P48506_615_CNQIANELCECPELLGSAFR (UniProt P48506) | -0.061

An excerpt of these results, comma-delimited:
Target,probe-labelled cysteine peptide fold change
GEMIN2_O14893_264_DDERVPALNLLICLVSR (UniProt O14893),0.264
GCN1_Q92616_1235_CGLALALNK (UniProt Q92616),-0.258
